According to PubChem BioAssay AID220 (DTP/NCI, 2004):
The list is a part of this screen's results and no random one: it gathers tests that were run many times, whatever their T/C, doses with no T/C, and many T/C values between a quarter and a half above the control. Further doses and runs are listed elsewhere. T/C: endpoint of the treated group in % of that of the vehicle group. Schedules are NCI's codes, taken here to give the interval after Q, in days (D) or hours (H), and the number of doses after X. Some T/C values carry the count of animals alive at the toxicity check (mostly the fifth day); where none is given, no animal had died by that day. Some entries give survivors of the animals treated and no T/C: the source files T/C as zero there, which appears to mark a toxic dose or a test without result, not a measured value. Counts of survivors are from the toxicity check (mostly the fifth day) where no day follows; animals may have died later. Some entries were tested several times; their values stand side by side, smallest first.

System: CD8F1 mice, subcutaneous mammary adenocarcinoma, T/C%
Experiment: NCI In Vivo Anticancer Drug Screen. Data for tumor model Mammary Adenocarcinoma CD8F1 (subcutaneous) in CD8F1
Conditions: higher T/C = larger tumour
Method in brief: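 Antitumor activity is assessed in transplantable-tumor mice by comparing the treated group with a vehicle-treated control group. Survival or tumor size serves as the measure, reported as T divided by C.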

[1] = T/C endpoint: median tumor weight change, dose: 250.0 mg/kg/injection, schedule: Q01DX001 (ip), vehicle: Klucel (hydroxypropylcellulose) (HPC)
[2] = T/C endpoint: median tumor weight change, dose: 500.0 mg/kg/injection, schedule: Q01DX001 (ip), vehicle: Klucel (hydroxypropylcellulose) (HPC)
[3] = T/C endpoint: median tumor weight change, dose: 1000.0 mg/kg/injection, schedule: Q01DX001 (ip), vehicle: Klucel (hydroxypropylcellulose) (HPC)
[4] = T/C endpoint: median tumor weight change, dose: 2000.0 mg/kg/injection, schedule: Q01DX001 (ip), vehicle: Klucel (hydroxypropylcellulose) (HPC)
[5] = T/C endpoint: median tumor weight change, dose: 125.0 mg/kg/injection, schedule: Q01DX001 (ip), vehicle: saline
[6] = T/C endpoint: median tumor weight change, dose: 250.0 mg/kg/injection, schedule: Q01DX001 (ip), vehicle: saline
[7] = T/C endpoint: median tumor weight change, dose: 500.0 mg/kg/injection, schedule: Q01DX001 (ip), vehicle: saline
[8] = T/C endpoint: median tumor weight change, dose: 1000.0 mg/kg/injection, schedule: Q01DX001 (ip), vehicle: saline
[9] = T/C endpoint: median tumor weight change, dose: 500.0 mg/kg/injection, schedule: Q01DX001 (ip), vehicle: saline with Tween-80
[10] = T/C endpoint: median tumor weight change, dose: 1000.0 mg/kg/injection, schedule: Q01DX001 (ip), vehicle: saline with Tween-80
[11] = T/C endpoint: median tumor weight change, dose: 2000.0 mg/kg/injection, schedule: Q01DX001 (ip), vehicle: saline with Tween-80

## Cc1ccc(S(=O)(=O)NC(=O)C2C(=O)CC3(CCCCC3)CC2=O)cc1
T/C endpoint: median tumor weight change, dose: 125.0 mg/kg/injection, schedule: Q01DX001 (ip), vehicle: Klucel (hydroxypropylcellulose) (HPC)
  survivor count: 5 of 10 on day 35
[1]
  survivor count: 1 of 10 on day 33 and 2 of 10 on day 35
[2]
  survivor count: 1 of 10 on day 33 and 1 of 10 on day 35
[3]
  survivor count: 0 of 10 on day 33 and 0 of 10 on day 35
[4]
  survivor count: 0 of 10 on day 33 and 0 of 10 on day 35

## CCSC(=O)N1c2ccc(OC)cc2C=CC1C#N (stereo unspecified)
T/C endpoint: median tumor weight (est.), dose: 200.0 mg/kg/injection, schedule: Q07DX005 (ip), vehicle: saline with Tween-80, evaluated on day 30
  T/C: 129 % of control [9 of 10 alive]
T/C endpoint: median tumor weight (est.), dose: 1800.0 mg/kg/injection, schedule: Q07DX005 (ip), vehicle: saline with Tween-80
  survivor count: 4 of 10 on day 30
T/C endpoint: median tumor weight (est.), dose: 3600.0 mg/kg/injection, schedule: Q07DX005 (ip), vehicle: saline with Tween-80
  survivor count: 2 of 10 on day 30

## COC1=C(C)C(=O)C2=C(C1=O)C(CO)N1C(C#N)C3CC4C(C1C2N1CCOC41)N3C (stereo unspecified)
T/C endpoint: median tumor weight change, dose: 2.5 mg/kg/injection, schedule: Q01DX001 (ip), vehicle: saline + alcohol, evaluated on day 28
  T/C: 142 % of control
T/C endpoint: median tumor weight change, dose: 10.0 mg/kg/injection, schedule: Q01DX001 (ip), vehicle: saline + alcohol
  survivor count: 0 of 10 on day 28 and 1 of 10 on day 26

## CCCCCCCCCCCCCCCC(=O)Nc1ccn(C2OC(CO)C(O)C2O)c(=O)n1 (stereo unspecified)
T/C endpoint: median tumor weight (est.), dose: 200.0 mg/kg/injection, schedule: Q07DX005 (ip), vehicle: saline
  survivor count: 6 of 10 on day 30

## COc1ccc2c(c1)CCn1c(C)c(COC(=O)NC(C)C)c(COC(=O)NC(C)C)c1-2
T/C endpoint: median tumor weight change, dose: 125.0 mg/kg/injection, schedule: Q01DX001 (ip), vehicle: distilled water + Tween-80
  survivor count: 5 of 10 on day 30
T/C endpoint: median tumor weight change, dose: 250.0 mg/kg/injection, schedule: Q01DX001 (ip), vehicle: distilled water + Tween-80
  survivor count: 0 of 10 on day 30 and 5 of 10 on day 26

## CCC1OC(OC)C=CC1=O (stereo unspecified)
T/C endpoint: median tumor weight change, dose: 62.5 mg/kg/injection, schedule: Q01DX001 (ip), vehicle: saline, evaluated on day 40
  T/C: 139 % of control
[5]
  survivor count: 6 of 10 on day 40
[6]
  survivor count: 0 of 10 on day 40
[7]
  survivor count: 0 of 10 on day 40
[8]
  survivor count: 0 of 10 on day 40

## O=S(=O)(N=N/C=C1\C=CC=CN1O)c1cccs1
[9]
  survivor count: 2 of 10 on day 33
[10]
  survivor count: 4 of 10 on day 33
[11]
  survivor count: 1 of 10 on day 33

## COC1=CC(=O)C(OC)=C(OC)C1=O
T/C endpoint: median tumor weight (est.), dose: 200.0 mg/kg/injection, schedule: Q07DX005 (ip), vehicle: saline with Tween-80
  survivor count: 6 of 10 on day 30

## O=C1CC2(C(=O)N1CN1CCCCC1)c1ccccc1-c1ccccc12
T/C endpoint: median tumor weight (est.), dose: 50.0 mg/kg/injection, schedule: Q07DX005 (ip), vehicle: Klucel (hydroxypropylcellulose) (HPC), evaluated on day 30
  T/C: 149 % of control

## CC(=O)[C@H]1CC[C@H]2[C@@H]3C[C@H](C)C4=CC(=O)CC[C@]4(C)[C@H]3C(=O)C[C@]12C
T/C endpoint: mean tumor weight, dose: 800.0 mg/kg/injection, schedule: Q07DX006 (ip), vehicle: saline
  survivor count: 6 of 10

## O=C1C=C2C(=CCOC2O)O1 (stereo unspecified)
T/C endpoint: median tumor weight (est.), dose: 0.75 mg/kg/injection, schedule: Q07DX005 (ip), vehicle: saline
  survivor count: 4 of 10 on day 30
T/C endpoint: median tumor weight (est.), dose: 6.0 mg/kg/injection, schedule: Q07DX005 (ip), vehicle: saline
  survivor count: 1 of 10 on day 30
T/C endpoint: median tumor weight (est.), dose: 8.0 mg/kg/injection, schedule: Q07DX005 (ip), vehicle: Klucel (hydroxypropylcellulose) (HPC)
  survivor count: 0 of 10 on day 30
T/C endpoint: median tumor weight (est.), dose: 12.0 mg/kg/injection, schedule: Q07DX005 (ip), vehicle: saline
  survivor count: 0 of 10 on day 30
T/C endpoint: median tumor weight (est.), dose: 16.0 mg/kg/injection, schedule: Q07DX005 (ip), vehicle: Klucel (hydroxypropylcellulose) (HPC)
  survivor count: 0 of 10 on day 30
T/C endpoint: median tumor weight change, dose: 2.5 mg/kg/injection, schedule: Q01DX001 (ip), vehicle: Klucel (hydroxypropylcellulose) (HPC), evaluated on day 29
  T/C: 127 % of control
T/C endpoint: median tumor weight change, dose: 10.0 mg/kg/injection, schedule: Q01DX001 (ip), vehicle: Klucel (hydroxypropylcellulose) (HPC)
  survivor count: 0 of 9 on day 29
T/C endpoint: median tumor weight change, dose: 20.0 mg/kg/injection, schedule: Q01DX001 (ip), vehicle: Klucel (hydroxypropylcellulose) (HPC)
  survivor count: 0 of 9 on day 29
T/C endpoint: median tumor weight change, dose: 40.0 mg/kg/injection, schedule: Q01DX001 (ip), vehicle: Klucel (hydroxypropylcellulose) (HPC)
  survivor count: 0 of 9 on day 29

## CC[n+]1c(-c2ccccc2)c2cc(N)ccc2c2ccc(N)cc21
T/C endpoint: median tumor weight (est.), dose: 5.0 mg/kg/injection, schedule: Q07DX005 (ip), vehicle: water, evaluated on day 32
  T/C: 135 % of control

## CC(=O)CC(C)=O.CC(=O)CC(C)=O.O=N[O-].O=N[O-].[Co]
T/C endpoint: median tumor weight change, dose: 250.0 mg/kg/injection, schedule: Q01DX001 (ip), vehicle: saline with Tween-80
  survivor count: 0 of 10 on day 43
[9]
  survivor count: 0 of 10 on day 43
[10]
  survivor count: 0 of 10 on day 43

## C1OCN2CSCC12 (stereo unspecified)
[10]
  survivor count: 0 of 10 on day 29
[11]
  survivor count: 0 of 10 on day 29

## O=c1n(CC2CO2)c(=O)n(CC2CO2)n1CC1CO1 (stereo unspecified)
[5]
  survivor count: 1 of 10 on day 35
[6]
  survivor count: 0 of 10 on day 35
[7]
  survivor count: 0 of 10 on day 35
[8]
  survivor count: 0 of 10 on day 35

## O=C(CC(=O)C(F)(F)F)c1csc2ccccc12
[1]
  survivor count: 0 of 10 on day 31
[2]
  survivor count: 0 of 10 on day 31
[3]
  survivor count: 0 of 10 on day 31
[4]
  survivor count: 0 of 10 on day 31

## O=C(CCCCCCC(=O)ON1C(=O)CCC1=O)ON1C(=O)CCC1=O
T/C endpoint: median tumor weight change, dose: 1500.0 mg/kg/injection, schedule: Q01DX001 (ip), vehicle: saline with Tween-80
  survivor count: 0 of 10 on day 24

## NC(Cc1ccc(N(CCCl)Cc2ccccc2)cc1)C(=O)O (stereo unspecified)
T/C endpoint: median tumor weight (est.), dose: 100.0 mg/kg/injection, schedule: Q07DX005 (ip), vehicle: distilled water + Tween-80
  survivor count: 2 of 10 on day 30
T/C endpoint: median tumor weight (est.), dose: 200.0 mg/kg/injection, schedule: Q07DX005 (ip), vehicle: distilled water + Tween-80
  survivor count: 0 of 10 on day 30

## COc1cc(C(C)(C)C)cc(OC)c1C(O)(c1c(OC)cc(C(C)(C)C)cc1OC)c1c(OC)cc(C(C)(C)C)cc1OC
[3]
  survivor count: 3 of 10 on day 38
[10]
  survivor count: 4 of 10 on day 32

## CC[C@@]1(O)C[C@H](OC2CC(N(C)C)C(OC3CC(O)C(O[C@@H]4O[C@@H](C)C(=O)C=C4N)C(C)O3)C(C)O2)c2c(cc3c(c2O)C(=O)c2c(O)ccc(O)c2C3=O)[C@H]1C(=O)OC (stereo partly specified)
T/C endpoint: median tumor weight (est.), dose: 1.0 micrograms/kg/injection, schedule: Q07DX005 (ip), vehicle: Klucel (hydroxypropylcellulose) (HPC), evaluated on day 30
  T/C: 148 % of control
T/C endpoint: median tumor weight (est.), dose: 4.0 micrograms/kg/injection, schedule: Q07DX005 (ip), vehicle: Klucel (hydroxypropylcellulose) (HPC), evaluated on day 30
  T/C: 142 % of control

## CC(=O)NCCCCCCNC(C)=O
T/C endpoint: median tumor weight change, dose: 500.0 mg/kg/injection, schedule: Q01DX001 (ip), vehicle: saline, evaluated on day 31
  T/C: 130 % of control
T/C endpoint: median tumor weight change, dose: 4000.0 mg/kg/injection, schedule: Q01DX001 (ip), vehicle: saline
  survivor count: 4 of 9 on day 28

## O=c1nc(-c2ccco2)sc(=O)[nH]1
[2]
  survivor count: 0 of 10 on day 28
[3]
  survivor count: 0 of 10 on day 28

## Cc1cc(=NO)cc(C)n1O
T/C endpoint: median tumor weight change, dose: 1000.0 mg/kg/injection, schedule: Q01DX001 (ip), vehicle: distilled water + alcohol
  survivor count: 1 of 10 on day 32 and 4 of 10 on day 29
T/C endpoint: median tumor weight change, dose: 2000.0 mg/kg/injection, schedule: Q01DX001 (ip), vehicle: distilled water + alcohol
  survivor count: 0 of 10 on day 29 and 0 of 10 on day 32

## CSC1SCC2C(=O)N(C)C(C(C)C)C(=O)OCC(NC(=O)c3cnc4ccccc4n3)C(=O)NC(C)C(=O)N(C)C1C(=O)N(C)C(C(C)C)C(=O)OCC(NC(=O)c1cnc3ccccc3n1)C(=O)NC(C)C(=O)N2C (stereo unspecified)
T/C endpoint: mean tumor weight, dose: 30.0 micrograms/kg/injection, schedule: Q07DX005 (ip), vehicle: saline
  survivor count: 4 of 10
